# In paper PMC7862700:
# The list shows a part of the results, in another mix than the full data. At the low end of the ranking, values are background and their order means little.
# Columns and labels:
# Experiment in all cases: DAPPL (digital affinity profiling via proximity ligation, sequencing)
# Conditions in all cases: 10 mM Tris-HCl pH 7.5, 50 mM NaCl, 1 mM DTT, 4% glycerol, room temperature, 30 min; GST-TFs on glutathione beads, 16-mer random dsDNA library, 0.1% …; high values mean tight binding; double strand, one strand shown; scale: fold enrichment (6-mer frequency, TF over GST control)
# ELK1 = molecular target: T1, ELK1 (UniProt P19419)
# T1 sequence: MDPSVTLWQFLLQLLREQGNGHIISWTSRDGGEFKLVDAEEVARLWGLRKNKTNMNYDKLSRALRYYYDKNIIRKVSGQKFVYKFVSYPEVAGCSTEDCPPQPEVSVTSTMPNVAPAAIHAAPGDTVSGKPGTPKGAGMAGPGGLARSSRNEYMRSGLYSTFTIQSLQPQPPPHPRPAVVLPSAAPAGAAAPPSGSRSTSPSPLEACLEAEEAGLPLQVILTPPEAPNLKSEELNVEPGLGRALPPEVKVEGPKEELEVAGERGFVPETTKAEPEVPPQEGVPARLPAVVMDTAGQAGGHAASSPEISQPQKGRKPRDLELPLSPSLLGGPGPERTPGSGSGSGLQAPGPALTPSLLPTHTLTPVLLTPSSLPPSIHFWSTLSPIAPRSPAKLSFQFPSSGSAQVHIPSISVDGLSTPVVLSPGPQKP
# ELK3 = molecular target: T2, ELK3 (UniProt P41970)
# T2 sequence: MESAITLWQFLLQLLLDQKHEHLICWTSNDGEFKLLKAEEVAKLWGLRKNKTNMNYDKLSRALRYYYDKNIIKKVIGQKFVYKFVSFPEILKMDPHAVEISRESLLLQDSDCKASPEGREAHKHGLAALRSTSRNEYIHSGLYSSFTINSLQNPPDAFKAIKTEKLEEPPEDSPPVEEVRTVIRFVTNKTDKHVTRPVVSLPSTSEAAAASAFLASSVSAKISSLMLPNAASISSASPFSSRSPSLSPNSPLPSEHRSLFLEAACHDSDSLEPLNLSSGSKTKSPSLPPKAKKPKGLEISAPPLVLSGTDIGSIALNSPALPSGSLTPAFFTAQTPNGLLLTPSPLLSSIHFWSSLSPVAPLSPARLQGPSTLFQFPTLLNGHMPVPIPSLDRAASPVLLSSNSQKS
# SPIC = molecular target: T3, SPIC (UniProt Q8N5J4)
# T3 sequence: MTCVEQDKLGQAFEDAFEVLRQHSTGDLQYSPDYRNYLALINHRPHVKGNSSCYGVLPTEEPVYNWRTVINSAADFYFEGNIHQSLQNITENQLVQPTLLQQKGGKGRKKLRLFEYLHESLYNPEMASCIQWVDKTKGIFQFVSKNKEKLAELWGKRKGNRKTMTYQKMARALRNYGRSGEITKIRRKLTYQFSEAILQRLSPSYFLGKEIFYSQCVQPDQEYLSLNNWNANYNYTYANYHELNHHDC
# ETS2 = molecular target: T4, ETS2 (UniProt P15036)
# T4 sequence: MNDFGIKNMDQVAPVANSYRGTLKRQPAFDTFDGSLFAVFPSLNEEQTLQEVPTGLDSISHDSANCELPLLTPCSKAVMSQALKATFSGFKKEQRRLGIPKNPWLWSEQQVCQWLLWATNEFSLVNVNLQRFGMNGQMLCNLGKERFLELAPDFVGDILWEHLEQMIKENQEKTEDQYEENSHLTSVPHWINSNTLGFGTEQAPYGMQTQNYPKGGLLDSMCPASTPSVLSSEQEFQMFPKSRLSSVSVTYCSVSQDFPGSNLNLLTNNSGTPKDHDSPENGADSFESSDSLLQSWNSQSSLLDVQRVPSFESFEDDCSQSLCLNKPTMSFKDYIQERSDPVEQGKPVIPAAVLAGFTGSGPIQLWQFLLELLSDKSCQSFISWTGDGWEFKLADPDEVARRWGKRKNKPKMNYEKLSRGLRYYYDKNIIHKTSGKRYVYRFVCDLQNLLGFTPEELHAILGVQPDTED
# ETV3 = molecular target: T5, ETV3 (UniProt P41162-2)
# T5 sequence: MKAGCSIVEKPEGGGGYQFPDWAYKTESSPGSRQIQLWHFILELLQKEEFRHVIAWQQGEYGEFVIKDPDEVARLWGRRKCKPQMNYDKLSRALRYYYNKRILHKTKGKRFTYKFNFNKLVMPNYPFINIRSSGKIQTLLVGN
Sequence,binding signal (ELK1),binding signal (ELK3),binding signal (SPIC),binding signal (ETS2),binding signal (ETV3)
AGCCTG,0.947,0.734,0.659,0.813,0.913
AGTCAC,0.77,0.741,0.703,0.756,0.754
CGCGAG,0.522,0.548,0.534,0.477,0.513
GTTGTG,0.925,0.857,0.954,0.83,0.88
GGGGGG,0.558,0.658,0.544,0.589,0.567
GTGCAG,0.742,0.743,0.833,0.813,0.786
AGACCA,0.668,0.596,0.659,0.658,0.612
GACGGG,0.388,0.459,0.451,0.434,0.424
TCGGGC,0.459,0.521,0.525,0.498,0.556
GACGGT,0.454,0.452,0.39,0.468,0.453
AGAGTC,0.45,0.423,0.402,0.432,0.459
GGTGTC,0.802,0.758,0.836,0.78,0.826
AAGAGA,0.863,0.857,0.874,0.821,0.826
ATCGTA,0.84,0.775,0.861,0.841,0.871
ATCAGG,0.981,0.849,0.864,0.98,0.945
GTGGCG,0.752,0.676,0.692,0.808,0.798
AGCCAG,0.465,0.505,0.444,0.442,0.476
GGGACG,0.476,0.501,0.453,0.493,0.456
AGTCGC,0.541,0.557,0.567,0.514,0.477
GTGTGG,0.599,0.538,0.693,0.659,0.62
GGGTGG,0.811,0.792,0.891,0.765,0.759
GGTCGC,0.871,0.849,0.908,0.843,0.872
CGTGTT,0.832,0.81,0.846,0.842,0.893

# Individual results from the entries so far.
# binding signal (ELK3) with AGCCTG reads 0.734
# binding signal (ETS2) with AGCCAG reads 0.442
